Consider 1 molecule from PMC3706396.

Amino acid sequences for entries named in this document (tags omitted).
UniProt P31946: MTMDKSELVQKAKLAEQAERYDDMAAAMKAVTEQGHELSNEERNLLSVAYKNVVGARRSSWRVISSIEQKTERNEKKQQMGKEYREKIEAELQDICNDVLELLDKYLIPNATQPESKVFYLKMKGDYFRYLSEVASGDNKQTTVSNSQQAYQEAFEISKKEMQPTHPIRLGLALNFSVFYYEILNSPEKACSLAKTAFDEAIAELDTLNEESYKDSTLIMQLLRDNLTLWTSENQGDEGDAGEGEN

No constants are given. Whether binding was seen depends on the method and setting. Binding seen in cells or lysates may run through a third protein. Some entries that bind do so weakly or less than the wild type.

For this test, the target named is 14-3-3β (human (endogenous in KB)) (UniProt P31946). Briefly: co-IP; lysates of G2/M synchronized KB, KB-EGFP and KB-S100A8/A9 cells; 14-3-3β captured with anti-14-3-3β antibody and protein-A gel at 4°C, Cdc25C detected by immunoblot; more co-precipitate in KB-S100A8/A9 cells. A general note: A western blot detects proteins with antibodies after separation by electrophoresis.

B1: Cdc25C (protein, UniProt P30307 1-473)
chain: MSTELFSSTREEGSSGSGPSFRSNQRKMLNLLLERDTSFTVCPDVPRTPVGKFLGDSANLSILSGGTPKRCLDLSNLSSGEITATQLTTSADLDETGHLDSSGLQEVHLAGMNHDQHLMKCSPAQLLCSTPNGLDRGHRKRDAMCSSSANKENDNGNLVDSEMKYLGSPITTVPKLDKNPNLGEDQAEEISDELMEFSLKDQEAKVSRSGLYRSPSMPENLNRPRLKQVEKFKDNTIPDKVKKKYFSGQGKLRKGLCLKKTVSLCDITITQMLEEDSNQGHLIGDFSKVCALPTVSGKHQDLKYVNPETVAALLSGKFQGLIEKFYVIDCRYPYEYLGGHIQGALNLYSQEELFNFFLKKPIVPLDTQKRIIIVFHCEFSSERGPRMCRCLREEDRSLNQYPALYYPELYILKGGYRDFFPEYMELCEPQSYCPMHHQDHKTELLRCRSQSKVQEGERQLREQIALLVKDMSP
For B1, the binding result was “binds”.
